No constants are given. Whether binding was seen depends on the method and setting.
Biological target: MAP1B LC-mScarlet (mouse) (UniProt P14873)
Assay: TIRF microscopy recruitment assay; one MAP1B chain on microtubules, intensity of the other chain with and without it: LC-mScarlet on subtilisin-digested microtubules with or without sfGFP-HC^1-1500; sfGFP-HC^1-532 on microtubules with or without LC-mScarlet; both purified

Protein sequences, listed by entry. Tags and fused reporters are not part of them. Residues count along the entry.
sfGFP-MAP1B HC^1-532 (P14873, residues 1-532): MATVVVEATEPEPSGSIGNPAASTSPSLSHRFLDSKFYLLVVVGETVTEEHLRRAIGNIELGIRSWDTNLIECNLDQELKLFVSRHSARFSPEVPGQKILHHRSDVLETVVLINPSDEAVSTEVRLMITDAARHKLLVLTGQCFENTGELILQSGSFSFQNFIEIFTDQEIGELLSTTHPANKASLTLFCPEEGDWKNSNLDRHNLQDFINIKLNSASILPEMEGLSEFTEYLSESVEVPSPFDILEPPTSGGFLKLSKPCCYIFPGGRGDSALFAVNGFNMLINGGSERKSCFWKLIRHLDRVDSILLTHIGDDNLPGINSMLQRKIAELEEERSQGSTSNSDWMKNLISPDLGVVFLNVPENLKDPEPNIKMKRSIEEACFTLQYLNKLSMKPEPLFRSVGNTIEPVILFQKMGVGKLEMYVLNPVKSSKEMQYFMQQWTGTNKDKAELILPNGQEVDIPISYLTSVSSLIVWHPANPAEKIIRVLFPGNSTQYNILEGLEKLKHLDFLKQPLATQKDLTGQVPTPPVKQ
MAP1B LC-mScarlet (P14873, residues 2203-2464): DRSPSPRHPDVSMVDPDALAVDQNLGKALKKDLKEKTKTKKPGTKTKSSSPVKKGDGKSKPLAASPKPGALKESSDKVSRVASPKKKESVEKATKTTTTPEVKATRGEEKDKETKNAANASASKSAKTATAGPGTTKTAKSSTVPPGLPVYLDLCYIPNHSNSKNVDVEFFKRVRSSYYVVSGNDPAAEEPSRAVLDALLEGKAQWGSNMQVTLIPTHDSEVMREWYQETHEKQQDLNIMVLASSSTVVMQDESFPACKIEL

For “sfGFP-MAP1B HC^1-532 (from UniProt P14873 1-532) (domain or fragment)”, the binding was “no binding”.
